From publication PMC6996347
No constants are given. Whether binding was seen depends on the method and setting.

Molecular target: translation recovery factor Trf from Sulfolobus solfataricus (S. solfataricus) (UniProt Q97VU8)
Assay: SEC; analytical gel filtration; 50 mM BisTris pH 6.5, 150 mM NaCl; protein concentration 50 μM; marker proteins PhS11 (14.74 kDa), PhFap7 (20.18 kDa), PhFap7/PhS11 complex (34.92 kDa); both purified

binding: no binding (tested: 50 μM)
B1: translation recovery factor Trf from Sulfolobus solfataricus (protein, UniProt Q97VU8 1-124)
chain: MREEEIRELYFKYFDENKLPFIQCNKCGHKFYYPRVLCPKCGSSDIEVRFSKGLGKIFAMTKVYRKDGSYVIYGIVELEEGFRMYSNIIEESQADINRKVEVIFKEINGKKYPLFKTVTHLHNF
